Measured values published in patent US20150202187A1, “COMPOSITIONS AND METHODS FOR TREATMENT OF VITILIGO” (priority 2012, published 2015).
For at least one compound, name, drawing or mass did not settle the structure.

Assays:
human melanocytes = test: Melanogenesis in cultured primary human melanocytes; type: cell-based; conditions: for melanogenesis in cultured primary melanocytes: 96 hours (FIG. 10)
Procedure: Rapamycin (also called sirolimus) inhibits immune attack by inhibiting the response to interleukin-2 (IL-2) and blocking activation of T- and B-cells. Rapamycin binds to the cytosolic protein FK-binding protein 12 (FKBP12) and inhibits the mammalian target of rapamycin (mTOR) pathway by directly binding the mTOR Complex 1 (mTORC1). […] For example, FIG. 1 depicts a western blot of lysates from HL60 cells, a model system for studying human myeloid cell differentiation, which were treated with rapamycin for 24 hours. […] Additionally, FIG. 2 depicts human melanocytes that were treated with rapamycin (0.01 μM) for 96 hours.
In FIG. 5, Primary Human melanocytes were treated with each agent or the combination for 96 h. […] FIG. 7 depicts a Western blot for protein expression of survival signals in primary human melanocytes treated with FGF, stem cell factor (SCF), forskolin and alpha-MSH, as compared to untreated melanocytes. […] Designation of 1 indicates the darkening (repigmentation) of skin surrounding hair follicles.

vitiligo afflicted skin = test: Topical treatment of vitiligo afflicted skin of a subject; type: in vivo
phospho S6K1 = test: Western blot of protein expression in HL60 cells treated with rapamycin; type: cell-based, human; conditions: rapamycin 0.1-100 uM, 24 hours, Western blot (FIG. 1)
[1] = topical, twice a day application of 2.5 uM cosmeceutical rapamycin composition

C=C[C@@]1(C)CC(=O)[C@]2(O)[C@@]3(C)[C@@H](O)CCC(C)(C)[C@@H]3[C@H](O)[C@H](OC(C)=O)[C@@]2(C)O1 [forskolin]
melanogenesis in cultured primary melanocytes (human melanocytes): increased melanogenesis | melanogenesis compared to untreated melanocytes (human melanocytes; FIG. 6): increased melanogenesis | melanogenesis in human melanocytes (human melanocytes; each agent alone, 96 h (FIG. 4)): melanogenesis increases

CO[C@H]1C[C@@H]2CC[C@@H](C)[C@@](O)(O2)C(=O)C(=O)N2CCCC[C@H]2C(=O)O[C@H]([C@H](C)C[C@@H]2CC[C@@H](O)[C@H](OC)C2)CC(=O)[C@H](C)/C=C(\C)[C@@H](O)[C@@H](OC)C(=O)[C@H](C)C[C@H](C)/C=C/C=C/C=C/1C [rapamycin, Rapamycin]
repigmentation of vitiligo affected skin (vitiligo afflicted skin; topical administration): repigmentation of vitiligo affected skin | skin pigmentation / melanogenesis in the skin (vitiligo afflicted skin; topical administration): increasing skin pigmentation | vitiligo phenotype (vitiligo afflicted skin; topical administration): reversion of vitiligo phenotype | discoloration of vitiligo afflicted skin (vitiligo afflicted skin; [1]): reduction of the discoloration | progression of the disease (vitiligo) (vitiligo afflicted skin; [1]): reduction in the progression of the disease | expression of phospho S6K1 (pS6K), a downstream substrate of mTOR (phospho S6K1): decreased | melanogenesis in cultured primary melanocytes (human melanocytes): increased melanogenesis | melanogenesis compared to untreated melanocytes (human melanocytes; human melanocytes, 0.01 μM, 96 hours (FIG. 2)): increased melanogenesis
